A: 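Polyketide synthase Pks13, Mycobacterium tuberculosis (UniProt I6X8D2). Enzyme assay of the thioesterase domain of polyketide synthase 13; the read-out is not stated. Tested at 30 µM. The record gives no direction; the compounds picked for IC50 retests had high values, so higher reads as stronger inhibition. Size under these conditions: about 67,000 compounds, about 300 of them at 50% or above in at least one test.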
B: 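Histidine-tRNA ligase, Leishmania infantum (UniProt A4I591). Enzyme assay of histidyl-tRNA synthetase; the read-out is not stated. Compounds at 30 µM. Direction is inferred from retests: higher values go with stronger inhibition. The assay is labelled LdHisRS but filed under L. infantum. Of about 69,000 compounds tested this way, about 410 (0.6%) reached 50% or more in at least one test.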
C: 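Cell assay of Leishmania donovani living inside macrophages; the read-out is not stated. Tested at 30 µM. Higher reads as stronger inhibition (inferred: compounds with an IC50 in retests scored well above the rest). Of about 69,000 compounds tested this way, about 1,000 (1.5%) reached 50% or more in at least one test.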
D: 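ClpP1P2, Mycobacterium tuberculosis (UniProt P9WPC5 and UniProt P9WPC3). Protease assay of ClpP1P2, read by the AMC dye that it sets free. Tested at 50 µM. Higher reads as stronger inhibition, judged from the few compounds that gave an IC50. Most other retested compounds had strongly negative values. Of about 69,000 compounds tested this way, about 10 (0.015%) reached 50% or more in at least one test.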
E: 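Assay of Toxoplasma gondii numbers, read through their beta-galactosidase reporter with a colour substrate. Concentration: 10 µM. The record gives no direction; the compounds picked for IC50 retests had high values, so higher reads as fewer parasites. Size under these conditions: about 67,000 compounds, about 260 of them at 50% or above in at least one test.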
F: 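Enzyme assay of CoaBC with a phosphate dye (Biomol Green) read at 650 nm. Target: Coenzyme A biosynthesis protein CoaBC, Mycobacterium tuberculosis (UniProt P9WNZ1). Compounds at 30 µM. Higher reads as stronger inhibition, judged from the few compounds that gave an IC50. Most strong results did not repeat in a second test. Size under these conditions: about 67,000 compounds, about 40 of them at 50% or above in at least one test.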

The chains behind the UniProt entries cited, without tags or fusion partners. Residues count along the entry.
UniProt I6X8D2, whole entry: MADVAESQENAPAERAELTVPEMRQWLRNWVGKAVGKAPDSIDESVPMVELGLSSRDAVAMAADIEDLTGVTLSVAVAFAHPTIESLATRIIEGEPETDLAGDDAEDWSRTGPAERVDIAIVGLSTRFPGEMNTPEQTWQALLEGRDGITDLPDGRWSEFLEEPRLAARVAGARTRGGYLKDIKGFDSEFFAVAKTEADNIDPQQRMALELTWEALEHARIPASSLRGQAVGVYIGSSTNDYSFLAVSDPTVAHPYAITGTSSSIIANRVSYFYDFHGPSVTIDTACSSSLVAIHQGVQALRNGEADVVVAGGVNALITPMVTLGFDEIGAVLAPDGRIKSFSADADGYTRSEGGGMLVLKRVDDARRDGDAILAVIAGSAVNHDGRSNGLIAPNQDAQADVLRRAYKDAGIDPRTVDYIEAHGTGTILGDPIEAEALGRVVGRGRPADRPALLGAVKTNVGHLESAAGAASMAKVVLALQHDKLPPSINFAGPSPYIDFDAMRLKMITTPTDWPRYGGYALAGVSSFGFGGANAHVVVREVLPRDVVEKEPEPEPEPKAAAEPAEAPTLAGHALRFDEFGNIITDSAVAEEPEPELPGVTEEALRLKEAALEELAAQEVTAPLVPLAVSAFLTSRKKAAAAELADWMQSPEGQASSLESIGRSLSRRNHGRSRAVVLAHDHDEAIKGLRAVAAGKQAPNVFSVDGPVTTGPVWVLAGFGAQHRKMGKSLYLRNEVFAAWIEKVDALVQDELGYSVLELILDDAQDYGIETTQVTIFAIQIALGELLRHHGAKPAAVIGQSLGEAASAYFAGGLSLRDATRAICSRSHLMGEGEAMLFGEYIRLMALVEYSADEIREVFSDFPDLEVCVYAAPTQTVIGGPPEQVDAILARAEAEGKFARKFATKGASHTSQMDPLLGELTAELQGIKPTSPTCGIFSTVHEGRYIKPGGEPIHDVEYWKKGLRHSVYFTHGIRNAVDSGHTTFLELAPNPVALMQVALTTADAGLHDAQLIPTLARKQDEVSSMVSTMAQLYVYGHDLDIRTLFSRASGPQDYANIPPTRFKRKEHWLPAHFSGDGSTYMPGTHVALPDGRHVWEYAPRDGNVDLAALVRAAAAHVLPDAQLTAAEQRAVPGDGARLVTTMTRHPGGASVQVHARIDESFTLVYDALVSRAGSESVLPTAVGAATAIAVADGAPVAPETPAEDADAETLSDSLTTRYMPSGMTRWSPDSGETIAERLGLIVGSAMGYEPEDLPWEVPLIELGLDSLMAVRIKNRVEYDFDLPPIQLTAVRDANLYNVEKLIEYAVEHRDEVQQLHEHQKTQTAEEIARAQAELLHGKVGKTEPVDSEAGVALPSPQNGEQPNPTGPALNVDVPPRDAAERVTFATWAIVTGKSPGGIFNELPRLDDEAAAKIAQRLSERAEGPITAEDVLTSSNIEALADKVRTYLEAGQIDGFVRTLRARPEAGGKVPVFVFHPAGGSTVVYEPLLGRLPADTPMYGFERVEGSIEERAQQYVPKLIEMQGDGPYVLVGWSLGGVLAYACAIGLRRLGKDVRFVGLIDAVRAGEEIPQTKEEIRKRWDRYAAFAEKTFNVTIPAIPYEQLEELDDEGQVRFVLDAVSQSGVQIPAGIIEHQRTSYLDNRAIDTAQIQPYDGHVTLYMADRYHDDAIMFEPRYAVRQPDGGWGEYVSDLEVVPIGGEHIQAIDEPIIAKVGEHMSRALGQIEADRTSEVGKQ
UniProt A4I591, 1-473: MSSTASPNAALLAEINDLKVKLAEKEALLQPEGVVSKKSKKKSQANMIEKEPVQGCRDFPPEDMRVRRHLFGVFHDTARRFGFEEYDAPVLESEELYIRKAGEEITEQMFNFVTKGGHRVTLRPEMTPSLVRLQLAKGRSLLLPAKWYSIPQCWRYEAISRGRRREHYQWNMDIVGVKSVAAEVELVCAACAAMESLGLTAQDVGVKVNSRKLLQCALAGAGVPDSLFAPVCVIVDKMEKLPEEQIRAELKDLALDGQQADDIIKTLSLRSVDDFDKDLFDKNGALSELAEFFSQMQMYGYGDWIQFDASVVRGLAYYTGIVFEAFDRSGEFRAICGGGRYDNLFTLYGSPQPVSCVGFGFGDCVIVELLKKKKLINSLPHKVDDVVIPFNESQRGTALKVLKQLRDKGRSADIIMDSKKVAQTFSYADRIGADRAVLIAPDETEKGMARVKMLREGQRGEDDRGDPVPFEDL
UniProt P9WPC5, whole entry: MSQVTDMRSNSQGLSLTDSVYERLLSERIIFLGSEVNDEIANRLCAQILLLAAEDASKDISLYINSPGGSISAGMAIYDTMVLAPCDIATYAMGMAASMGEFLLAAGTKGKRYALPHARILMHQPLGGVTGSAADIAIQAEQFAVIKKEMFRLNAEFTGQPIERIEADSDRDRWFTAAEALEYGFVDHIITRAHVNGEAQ
UniProt P9WPC3, whole entry partner: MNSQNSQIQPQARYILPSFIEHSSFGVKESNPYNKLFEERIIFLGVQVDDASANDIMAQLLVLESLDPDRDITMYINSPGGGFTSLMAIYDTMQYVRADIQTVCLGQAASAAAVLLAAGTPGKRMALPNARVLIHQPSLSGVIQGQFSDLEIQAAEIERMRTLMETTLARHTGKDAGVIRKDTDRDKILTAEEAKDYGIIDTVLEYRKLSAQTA
UniProt P9WNZ1, whole entry: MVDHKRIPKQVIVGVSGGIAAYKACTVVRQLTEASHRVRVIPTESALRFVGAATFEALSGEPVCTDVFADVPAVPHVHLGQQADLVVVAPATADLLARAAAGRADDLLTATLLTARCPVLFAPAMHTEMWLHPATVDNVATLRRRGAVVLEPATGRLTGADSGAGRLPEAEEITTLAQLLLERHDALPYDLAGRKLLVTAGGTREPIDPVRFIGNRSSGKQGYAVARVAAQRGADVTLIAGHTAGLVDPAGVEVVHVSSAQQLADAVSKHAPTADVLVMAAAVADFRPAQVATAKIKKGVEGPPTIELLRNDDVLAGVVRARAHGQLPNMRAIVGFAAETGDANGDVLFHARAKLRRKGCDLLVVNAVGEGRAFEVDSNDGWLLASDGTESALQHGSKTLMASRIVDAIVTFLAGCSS

Each number is a percent effect as filed.
How 0% and 100% were set is not recorded. Most values in the screen are low, and negative values occur.
The compounds are a random part of those screened.
Two or more numbers in one place are separate tests of the same structure; such repeats can differ widely.
A dash means the value is not listed here; it may have been measured.

structure: CCn1cnnc1CNC(=O)NCC(C)(CC)N1CCOCC1 (stereo not shown)
A: -19.04%
B: 9.091%
C: 20.64%
D: -2.649%
E: 5.316%
F: 4.43%

structure: O=C(c1ccc[nH]1)N1CCOC2(COCCN(c3cncnc3)C2)C1 (stereo not shown)
A: -27.54%
B: 7.895%
C: 28.64%
D: -16.88%
E: 6.523%
F: 11.2%

structure: OC1=C2C(=Nc3n[nH]c(O)c3C2c2ccccc2Cl)CCC1 (stereo not shown)
A: -0.8555%
B: 28.09%
C: 11.34%
D: 1.596%
E: 21.47%
F: -9.115%

structure: O=C(O)C(F)(F)F.[H][C@@]12COC[C@]1(CNS(=O)(=O)CC)CN(Cc1ccsc1)C2
C: 25.14%
E: 5.907%

structure: COc1ccccc1-c1cc(NC(=O)CC2CCS(=O)(=O)C2)[nH]n1 (stereo not shown)
A: -27.81%
B: 15.15%
C: 28.65%
D: 4.658%
E: -9.555%
F: 2.899%

structure: [H][C@]12CC[C@]([H])(CN(C)C1)N(C(=O)c1cc(OC)ccc1OC)C2
C: -27.4%
E: 12.46%

structure: Cc1c(Br)cccc1C(=O)NCc1cnn(C)c1
A: -17.85%
B: 11.4%
C: 1.079%
D: -2.259%
E: 3.583%
F: 6.483%

structure: Cc1noc(C)c1CN1CCO[C@H]2CNC[C@H]21
A: -8.977%
B: 3.922%
D: 10.01%
F: 0.1287%

structure: O=C(CCc1ccccn1)N1CCSC2(CCCCC2)C1
A: -13.87%
B: 10.75%
C: 13.97%
D: -8.406%
E: -10.52%
F: -1.474%

structure: CCC(CO)NCc1ccc(-c2ccccc2F)o1 (stereo not shown)
A: -4.101%
B: 21.84%
C: 4.793%
D: 6.536%
E: 16.09%
F: -8.501%

structure: Cn1cc(NC(=O)NC2CCCN(c3ccccc3Cl)C2=O)cn1 (stereo not shown)
A: -27.35%
B: 10.26%
C: -16.68%
D: 1.357%
E: -9.186%
F: -3.2%

structure: Cn1ccnc1CN1C(=O)CO[C@H]2CN(Cc3ccccc3O)C[C@H]21
A: -7.885%
B: 6.757%
D: -12.07%
F: 1.104%

structure: O=C(O)C(F)(F)F.O=C(O)C(F)(F)F.[H][C@@]12CN(CC3CCOCC3)C[C@]1([H])OCCN2c1ncccn1
C: 29.21%
E: 13.96%

structure: CNc1nc(CNC(=O)Nc2cccc(COCCOC(C)C)c2)cs1
A: -24.48%
B: 26.88%
C: 10.56%
D: 2.306%
E: 6.445%
F: -4.019%

structure: Cc1nn(Cc2ccccc2)c(C)c1CNC1CCc2ncnn2C1 (stereo not shown)
A: -27.44%
B: 13.68%
C: 25.23%
D: 4.514%
E: 9.583%
F: -8.043%

structure: O=C1CCOC[C@]2(CN(Cc3ccccc3)C[C@H]2c2ccccc2)N1
A: -16.9%
B: 5.369%
C: -10.32%
D: -27.49%
E: -1.769%
F: 6.164%

structure: Cc1cc(C)n(-c2cccc(C(=O)Nc3n[nH]c(C4CCCO4)n3)c2)n1 (stereo not shown)
A: -24.3%
B: 18.68%
C: 16.3%
D: 0.523%
E: 10.1%
F: 12.89% & 20.28%

structure: CSc1nc2ccsc2c(=O)n1CC(=O)N1CCCCC1C (stereo not shown)
A: -11.43%
B: 16.07%
C: 25.11%
D: -7.267%
E: 11.69%
F: 2.197%

structure: NCc1cccc(-c2cccnc2C(=O)NCCN2CCCC2)c1
A: 6.003%
B: 24.11%
C: 7.785%
D: -15.41%
E: -8.333%
F: 15.38%

structure: CN(C)C(=O)CN1C(=O)CCC12CCN(Cc1ccsc1)CC2.O=C(O)C(F)(F)F
C: 9.844%
E: -27.79%

structure: O=c1[nH]c(-c2ccncc2)ncc1-c1ccnc(NC2CC2)n1
A: -11.83%
B: 11.43%
C: 25.3% & 6.564%
D: 14.81%
E: 9.253%
F: 0.1205%

structure: COc1nccnc1N1CCC(C(=O)O)(n2ccc(C(C)(C)C)n2)CC1
A: -12.86%
B: 20.99%
C: 36.63%
D: -20.98%
E: -12.72%
F: 3.316%

structure: CN(C)[C@@H]1CCN(C(=O)CC2CC2)[C@H]1Cc1cnn(C)c1.O=C(O)C(F)(F)F
C: 19.8%
E: -17.42%

The last 3 entries again:

| structure | A | B | C | D | E | F |
|---|---|---|---|---|---|---|
| `O=c1[nH]c(-c2ccncc2)ncc1-c1ccnc(NC2CC2)n1` | -11.83% | 11.43% | 25.3% & 6.564% | 14.81% | 9.253% | 0.1205% |
| `COc1nccnc1N1CCC(C(=O)O)(n2ccc(C(C)(C)C)n2)CC1` | -12.86% | 20.99% | 36.63% | -20.98% | -12.72% | 3.316% |
| `CN(C)[C@@H]1CCN(C(=O)CC2CC2)[C@H]1Cc1cnn(C)c1.O=C(O)C(F)(F)F` | - | - | 19.8% | - | -17.42% | - |

Source: ChEMBL document CHEMBL3988442, “University of Dundee, Small-Polar-MMV Screening Library” (2021).